According to the supplement of paper PMC10849652:
Some of the results follow.

By UniProt entry, the sequences of proteins in these tests, tags left out. Where a name states a change or a piece, a line headed by the entry shows the natural chain unless it says otherwise.
UniProt Q9Y5J1: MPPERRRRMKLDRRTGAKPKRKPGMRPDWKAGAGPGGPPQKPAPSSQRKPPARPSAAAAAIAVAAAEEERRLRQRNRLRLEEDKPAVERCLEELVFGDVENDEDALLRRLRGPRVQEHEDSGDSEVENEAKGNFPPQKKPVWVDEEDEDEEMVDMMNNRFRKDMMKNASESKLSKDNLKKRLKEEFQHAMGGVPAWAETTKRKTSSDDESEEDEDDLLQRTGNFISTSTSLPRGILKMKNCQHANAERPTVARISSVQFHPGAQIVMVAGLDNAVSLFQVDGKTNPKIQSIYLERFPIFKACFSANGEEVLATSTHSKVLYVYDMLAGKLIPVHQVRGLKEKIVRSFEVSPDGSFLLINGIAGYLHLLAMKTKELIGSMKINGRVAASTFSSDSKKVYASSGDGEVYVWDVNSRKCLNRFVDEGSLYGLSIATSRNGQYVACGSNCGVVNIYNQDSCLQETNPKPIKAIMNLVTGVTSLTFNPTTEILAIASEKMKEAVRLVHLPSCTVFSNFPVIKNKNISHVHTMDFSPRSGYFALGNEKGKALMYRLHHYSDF
UniProt Q9H9C1: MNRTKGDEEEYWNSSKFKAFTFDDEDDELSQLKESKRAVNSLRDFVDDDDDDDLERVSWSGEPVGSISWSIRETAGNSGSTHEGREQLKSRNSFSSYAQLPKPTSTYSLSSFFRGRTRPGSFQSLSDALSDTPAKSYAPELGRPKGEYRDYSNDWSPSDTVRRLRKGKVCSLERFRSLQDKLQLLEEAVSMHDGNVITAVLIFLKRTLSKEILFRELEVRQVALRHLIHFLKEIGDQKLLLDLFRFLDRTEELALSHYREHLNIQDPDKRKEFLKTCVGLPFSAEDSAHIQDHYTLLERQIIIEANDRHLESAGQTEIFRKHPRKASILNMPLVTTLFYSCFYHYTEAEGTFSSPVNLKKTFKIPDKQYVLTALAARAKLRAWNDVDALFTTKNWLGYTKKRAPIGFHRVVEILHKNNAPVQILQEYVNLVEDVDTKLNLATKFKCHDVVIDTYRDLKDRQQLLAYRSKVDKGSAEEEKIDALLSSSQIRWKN
UniProt P07919: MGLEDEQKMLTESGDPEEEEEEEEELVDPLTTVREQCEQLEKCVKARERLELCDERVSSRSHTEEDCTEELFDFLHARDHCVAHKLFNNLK
UniProt O75691: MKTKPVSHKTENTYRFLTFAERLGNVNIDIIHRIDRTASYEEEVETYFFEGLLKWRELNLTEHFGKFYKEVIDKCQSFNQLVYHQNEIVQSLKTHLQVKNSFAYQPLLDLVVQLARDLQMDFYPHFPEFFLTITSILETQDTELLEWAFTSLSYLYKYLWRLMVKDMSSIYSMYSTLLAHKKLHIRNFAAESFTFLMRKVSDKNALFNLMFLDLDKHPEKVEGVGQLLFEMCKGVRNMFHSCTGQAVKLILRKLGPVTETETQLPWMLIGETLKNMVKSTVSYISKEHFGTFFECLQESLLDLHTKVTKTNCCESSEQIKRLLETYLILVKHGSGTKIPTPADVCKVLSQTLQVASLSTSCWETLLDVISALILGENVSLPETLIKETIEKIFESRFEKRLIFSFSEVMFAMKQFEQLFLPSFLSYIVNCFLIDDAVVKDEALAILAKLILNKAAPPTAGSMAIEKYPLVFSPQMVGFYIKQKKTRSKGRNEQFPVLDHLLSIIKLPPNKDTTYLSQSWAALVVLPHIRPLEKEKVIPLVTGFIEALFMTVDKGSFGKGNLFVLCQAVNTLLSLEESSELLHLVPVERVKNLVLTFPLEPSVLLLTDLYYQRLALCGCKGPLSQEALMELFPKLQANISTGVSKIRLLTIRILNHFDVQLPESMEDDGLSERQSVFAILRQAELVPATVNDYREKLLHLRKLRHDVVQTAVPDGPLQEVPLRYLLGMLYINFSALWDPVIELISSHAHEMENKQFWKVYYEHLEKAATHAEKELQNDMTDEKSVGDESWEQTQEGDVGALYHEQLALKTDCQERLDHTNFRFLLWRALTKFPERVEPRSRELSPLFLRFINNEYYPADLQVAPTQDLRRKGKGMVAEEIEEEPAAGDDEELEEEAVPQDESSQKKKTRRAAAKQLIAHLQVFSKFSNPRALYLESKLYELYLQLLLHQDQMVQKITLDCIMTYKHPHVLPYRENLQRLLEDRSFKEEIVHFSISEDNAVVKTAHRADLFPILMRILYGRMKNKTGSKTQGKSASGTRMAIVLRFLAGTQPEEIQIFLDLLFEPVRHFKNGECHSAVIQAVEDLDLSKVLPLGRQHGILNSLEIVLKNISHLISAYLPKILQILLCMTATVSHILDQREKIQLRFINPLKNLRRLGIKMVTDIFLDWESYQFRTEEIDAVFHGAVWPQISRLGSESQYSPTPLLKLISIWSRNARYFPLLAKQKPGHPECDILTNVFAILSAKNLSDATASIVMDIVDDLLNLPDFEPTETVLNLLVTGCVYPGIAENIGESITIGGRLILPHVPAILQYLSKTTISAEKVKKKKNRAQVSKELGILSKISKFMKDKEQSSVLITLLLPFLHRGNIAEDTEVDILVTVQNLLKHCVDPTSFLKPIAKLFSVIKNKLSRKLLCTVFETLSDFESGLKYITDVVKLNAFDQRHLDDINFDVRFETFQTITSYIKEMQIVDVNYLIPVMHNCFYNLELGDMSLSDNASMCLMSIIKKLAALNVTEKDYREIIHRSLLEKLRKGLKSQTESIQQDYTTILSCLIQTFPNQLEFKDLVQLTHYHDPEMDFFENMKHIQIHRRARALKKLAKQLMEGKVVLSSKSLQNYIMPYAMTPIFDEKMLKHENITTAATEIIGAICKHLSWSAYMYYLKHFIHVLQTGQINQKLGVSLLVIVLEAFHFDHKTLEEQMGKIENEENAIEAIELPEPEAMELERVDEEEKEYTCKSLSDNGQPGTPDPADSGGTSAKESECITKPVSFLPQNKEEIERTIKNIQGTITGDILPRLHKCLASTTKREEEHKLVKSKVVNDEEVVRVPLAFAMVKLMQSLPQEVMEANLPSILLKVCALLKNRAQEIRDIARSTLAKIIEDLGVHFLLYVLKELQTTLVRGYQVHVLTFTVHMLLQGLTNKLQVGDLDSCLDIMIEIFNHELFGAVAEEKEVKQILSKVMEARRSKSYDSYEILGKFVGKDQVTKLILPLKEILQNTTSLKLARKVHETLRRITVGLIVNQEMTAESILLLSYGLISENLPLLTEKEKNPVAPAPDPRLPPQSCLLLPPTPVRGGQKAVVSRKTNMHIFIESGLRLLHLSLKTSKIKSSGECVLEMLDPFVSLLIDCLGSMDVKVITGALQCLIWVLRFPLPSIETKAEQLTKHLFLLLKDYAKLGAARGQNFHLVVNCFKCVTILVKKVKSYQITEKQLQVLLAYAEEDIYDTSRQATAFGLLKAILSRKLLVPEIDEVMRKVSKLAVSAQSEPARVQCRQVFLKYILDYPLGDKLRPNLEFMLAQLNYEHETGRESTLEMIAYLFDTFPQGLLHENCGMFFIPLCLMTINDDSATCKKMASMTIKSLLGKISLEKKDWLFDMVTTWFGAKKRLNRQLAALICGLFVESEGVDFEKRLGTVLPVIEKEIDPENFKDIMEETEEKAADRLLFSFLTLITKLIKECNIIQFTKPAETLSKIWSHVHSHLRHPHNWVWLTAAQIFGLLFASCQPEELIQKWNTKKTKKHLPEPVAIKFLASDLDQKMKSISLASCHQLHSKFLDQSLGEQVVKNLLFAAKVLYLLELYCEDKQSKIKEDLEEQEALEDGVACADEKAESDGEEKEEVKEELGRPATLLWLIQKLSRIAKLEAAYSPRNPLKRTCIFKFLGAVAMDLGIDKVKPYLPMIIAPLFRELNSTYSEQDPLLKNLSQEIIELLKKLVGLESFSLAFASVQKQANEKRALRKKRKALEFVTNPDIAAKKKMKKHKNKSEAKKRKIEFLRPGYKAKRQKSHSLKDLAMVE
UniProt P40337, whole entry, looked up: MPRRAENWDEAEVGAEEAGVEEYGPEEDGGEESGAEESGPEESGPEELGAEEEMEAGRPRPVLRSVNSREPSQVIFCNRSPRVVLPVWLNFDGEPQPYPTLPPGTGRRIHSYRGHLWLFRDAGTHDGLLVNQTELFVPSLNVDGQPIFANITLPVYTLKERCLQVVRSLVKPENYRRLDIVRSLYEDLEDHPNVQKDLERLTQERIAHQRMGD
UniProt Q16880: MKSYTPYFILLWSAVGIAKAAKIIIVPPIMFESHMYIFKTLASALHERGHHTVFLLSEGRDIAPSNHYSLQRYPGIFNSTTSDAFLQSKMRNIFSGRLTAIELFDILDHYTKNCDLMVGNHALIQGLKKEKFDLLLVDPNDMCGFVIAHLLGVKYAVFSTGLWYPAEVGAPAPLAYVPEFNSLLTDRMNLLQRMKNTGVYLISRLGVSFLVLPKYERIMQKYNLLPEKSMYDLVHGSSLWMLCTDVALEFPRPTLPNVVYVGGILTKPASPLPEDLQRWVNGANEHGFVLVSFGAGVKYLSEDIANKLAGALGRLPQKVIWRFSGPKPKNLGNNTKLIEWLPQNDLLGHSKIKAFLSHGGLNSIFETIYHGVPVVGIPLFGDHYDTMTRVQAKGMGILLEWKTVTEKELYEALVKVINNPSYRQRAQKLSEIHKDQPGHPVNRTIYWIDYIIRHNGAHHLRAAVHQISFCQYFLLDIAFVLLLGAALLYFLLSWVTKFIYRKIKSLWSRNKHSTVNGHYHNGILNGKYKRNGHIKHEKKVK
UniProt P21796, whole entry, looked up: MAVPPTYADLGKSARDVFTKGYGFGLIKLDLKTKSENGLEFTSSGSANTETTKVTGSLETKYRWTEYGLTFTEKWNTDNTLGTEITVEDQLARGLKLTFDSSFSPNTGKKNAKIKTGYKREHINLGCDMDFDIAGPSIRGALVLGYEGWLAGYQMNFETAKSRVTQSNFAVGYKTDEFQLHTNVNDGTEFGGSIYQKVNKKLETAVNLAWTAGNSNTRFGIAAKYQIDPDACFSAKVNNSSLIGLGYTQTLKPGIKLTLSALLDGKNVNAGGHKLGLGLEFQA
UniProt Q9UKW4: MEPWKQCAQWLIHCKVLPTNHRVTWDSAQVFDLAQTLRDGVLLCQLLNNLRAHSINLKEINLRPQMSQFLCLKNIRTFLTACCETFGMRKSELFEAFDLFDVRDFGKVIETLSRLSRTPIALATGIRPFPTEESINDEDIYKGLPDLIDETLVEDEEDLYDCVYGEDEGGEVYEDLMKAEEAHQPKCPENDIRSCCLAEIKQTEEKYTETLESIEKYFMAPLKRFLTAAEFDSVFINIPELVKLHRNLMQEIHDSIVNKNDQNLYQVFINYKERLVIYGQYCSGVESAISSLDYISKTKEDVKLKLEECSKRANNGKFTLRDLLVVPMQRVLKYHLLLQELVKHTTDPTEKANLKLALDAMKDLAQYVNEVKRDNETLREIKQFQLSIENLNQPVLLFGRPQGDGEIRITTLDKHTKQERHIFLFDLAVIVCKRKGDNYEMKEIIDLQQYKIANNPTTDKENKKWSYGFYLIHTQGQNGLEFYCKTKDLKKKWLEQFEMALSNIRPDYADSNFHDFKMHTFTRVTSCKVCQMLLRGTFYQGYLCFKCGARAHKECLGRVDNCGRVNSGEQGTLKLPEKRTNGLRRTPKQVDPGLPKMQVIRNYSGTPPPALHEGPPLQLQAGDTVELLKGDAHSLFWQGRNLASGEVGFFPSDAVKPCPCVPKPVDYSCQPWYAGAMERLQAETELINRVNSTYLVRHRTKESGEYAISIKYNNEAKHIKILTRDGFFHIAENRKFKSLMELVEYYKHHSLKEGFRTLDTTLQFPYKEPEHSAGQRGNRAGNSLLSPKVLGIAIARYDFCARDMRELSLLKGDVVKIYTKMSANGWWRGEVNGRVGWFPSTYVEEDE
UniProt Q9Y3C8: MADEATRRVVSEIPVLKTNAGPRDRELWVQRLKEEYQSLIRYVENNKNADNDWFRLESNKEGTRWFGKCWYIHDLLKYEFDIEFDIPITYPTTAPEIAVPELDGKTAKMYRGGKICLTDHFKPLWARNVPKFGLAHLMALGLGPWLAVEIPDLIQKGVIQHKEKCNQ
UniProt Q9NWZ5: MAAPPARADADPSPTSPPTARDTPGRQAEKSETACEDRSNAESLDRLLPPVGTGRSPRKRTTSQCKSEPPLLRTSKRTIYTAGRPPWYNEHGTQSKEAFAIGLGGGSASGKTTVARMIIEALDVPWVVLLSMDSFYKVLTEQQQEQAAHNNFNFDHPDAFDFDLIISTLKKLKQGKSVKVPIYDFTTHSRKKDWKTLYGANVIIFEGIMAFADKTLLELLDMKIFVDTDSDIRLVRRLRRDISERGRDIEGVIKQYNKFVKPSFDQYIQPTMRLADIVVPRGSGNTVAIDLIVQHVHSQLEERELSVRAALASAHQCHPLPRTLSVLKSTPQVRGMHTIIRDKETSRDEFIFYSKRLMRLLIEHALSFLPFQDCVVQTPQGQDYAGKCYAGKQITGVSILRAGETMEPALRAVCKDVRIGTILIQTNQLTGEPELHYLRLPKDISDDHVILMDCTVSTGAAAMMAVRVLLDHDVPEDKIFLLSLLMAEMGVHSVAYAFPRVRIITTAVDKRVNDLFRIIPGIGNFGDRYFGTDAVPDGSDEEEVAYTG

Legend:
Test in all cases: log2 fold change, soluble protein after heating vs DMSO (PISA); higher = thermal stabilisation; K562 lysate, 10 uM; active = over 0.2 and 3.5 SD of the protein, either way, in both replicates (recomputed)
[1] = compound: C1=CC=C(C=C1)[C@H](COC2=CC3=C(C=C2)NC(=O)N3)NC(=O)C4=CC=CN(C4=O)CC5=CC(=C(C=C5)F)F
Summary of the method: (§1)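 Following dounce homogenisation of K562 pellets in PBS pH 7.4 with 1 mM MgCl2, crude extract at 1 mg/mL protein was incubated for 30 min with 10 μM compound. Aliquots were then heated for 3 min over 48°C-58°C and pooled, NP-40 was added to 0.5% at 4°C, and soluble protein was recovered as the supernatant at 21,000xg for 90 min. Channel-sum-equalised TMTpro 16plex LC-MS/MS quantified this protein. Each value, from duplicates, is a log-two fold change in thermal stability relative to solvent controls.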

[2] = compound: CC1=C(SC2=C1C(=N[C@H](C3=NN=C(N32)C)CC(=O)N)C4=CC=C(C=C4)Cl)C
Summary of the method: as §1

[3] = compound: CC1=C2C(=CC=C1)N=C(N(C2=O)C3=CC=CC=C3C)CN4C=NC5=C(N=CN=C54)N
Summary of the method: as §1

[4] = compound: Cc1sc2c(c1C)C(c1ccc(Cl)cc1)=N[C@@H](CC(=O)OC(C)(C)C)c1nnc(C)n1-2
Summary of the method: as §1

[5] = compound: c1ccc([C@@H]2C[C@H]2NC2CCNCC2)cc1
Summary of the method: as §1

Measured: log2 fold change

UNC93B1 (UniProt Q9H1C4)
inactive: [1] -0.069 | [2] 0.059 | [3] 0.034 | [4] -0.053 | [5] -0.029

UTP18 (UniProt Q9Y5J1)
inactive: [1] 0.117 | [2] -0.005 | [3] -0.088 | [4] -0.013 | [5] 0.059

VIPAS39 (UniProt Q9H9C1)
inactive: [1] 0.004 | [2] 0.028 | [3] 0.129 | [4] -0.095 | [5] -0.034

UQCRH (UniProt P07919)
inactive: [1] -0.012 | [2] -0.069 | [3] 0.001 | [4] -0.026 | [5] -0.011

UTP20 (UniProt O75691)
inactive: [1] 0.017 | [2] -0.012 | [3] 0.103 | [4] 0.021 | [5] 0.035

USP48 isoform 8 (UniProt Q86UV5)
inactive: [1] 0.006 | [2] -0.016 | [3] 0.015 | [4] 0.003 | [5] 0.035

VHL (UniProt P40337)
inactive: [1] 0.165 | [2] 0.004 | [3] -0.029 | [4] -0.178 | [5] 0.08

USP20 (UniProt Q9Y2K6)
inactive: [1] -0.178 | [2] -0.086 | [4] 0.04

UGT8 (UniProt Q16880)
inactive: [1] 0.122 | [2] 0.073 | [3] 0.057 | [4] 0.045 | [5] 0

VDAC1 (UniProt P21796)
inactive: [1] -0.01 | [2] 0.024 | [3] -0.015 | [4] -0.016 | [5] 0.023

Copied from above (two entries):
USP20 (UniProt Q9Y2K6)
inactive: [1] -0.178 | [2] -0.086 | [4] 0.04

UGT8 (UniProt Q16880)
inactive: [1] 0.122 | [2] 0.073 | [3] 0.057 | [4] 0.045 | [5] 0

Additional entries follow.

VAV3 isoform 4 (UniProt Q9UKW4)
inactive: [1] 0.089 | [2] -0.012 | [3] 0.096 | [4] 0.001 | [5] -0.391

UFC1 (UniProt Q9Y3C8)
inactive: [1] 0.033 | [2] -0.067 | [3] -0.017 | [4] -0.001 | [5] 0

UCKL1 (UniProt Q9NWZ5)
inactive: [1] 0.016 | [2] 0.01 | [3] 0.003 | [4] 0.056 | [5] -0.034

VEZT (UniProt F8W8C2)
inactive: [1] 0.009 | [2] -0.062 | [3] 0.01 | [5] 0.058
